Assay results taken from US12139477B2, “Compounds, salts thereof and methods for treatment of diseases” (ACADIA PHARMACEUTICALS INC., priority 2017, dated 2024).

By UniProt entry, the sequences of proteins in these tests, tags left out.
UniProt P28223, whole entry: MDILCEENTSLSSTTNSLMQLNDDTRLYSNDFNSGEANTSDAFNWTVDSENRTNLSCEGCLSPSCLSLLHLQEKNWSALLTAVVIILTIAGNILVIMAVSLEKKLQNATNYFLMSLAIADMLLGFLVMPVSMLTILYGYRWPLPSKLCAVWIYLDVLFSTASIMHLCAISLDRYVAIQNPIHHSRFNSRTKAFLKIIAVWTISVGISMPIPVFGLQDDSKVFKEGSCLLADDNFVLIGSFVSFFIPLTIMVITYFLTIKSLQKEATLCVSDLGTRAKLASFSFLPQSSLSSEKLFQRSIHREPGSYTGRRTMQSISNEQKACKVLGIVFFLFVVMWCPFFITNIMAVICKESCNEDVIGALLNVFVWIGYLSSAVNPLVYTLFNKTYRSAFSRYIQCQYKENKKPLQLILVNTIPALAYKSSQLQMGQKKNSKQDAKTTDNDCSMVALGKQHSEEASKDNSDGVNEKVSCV

Target: 5HT2A (Homo sapiens, UniProt P28223)
Assay: Receptor Selection and Amplification (R-SAT) functional assay
Conditions: NIH3T3 cells; Ki from IC50 by Cheng and Prussoff; tested form: TFA

CC(C)Oc1ccc(CNC(=O)N(Cc2ccc(F)cc2F)[C@@H]2CCN(C)C[C@@H]2C)cc1 (relative stereo)
5-HT2a (pKi) (R-SAT): 8.4 and 8.8

The structures given here were assigned with low confidence; some may be wrong. A number of entries come with more than one value. This list holds those alone. The source may hold further records. Values given together read as repeated measurements (runs, samples, wells or individuals).
